At least one structure is not confirmed: it was looked up by name or label, or the drawing left a doubt. Square brackets hold non-standard residues; d marks the D form. Peptide text beside a SMILES is read from it. pGlu = O=C1CC[C@@H](C(=O)O)N1
Assays:
LH-release = LH-release in rats after subcutaneous injection (procedure of Arimura et al.); type: in vivo
FSH-release = FSH-release following injection (procedure of Arimura et al.); conditions: same dose (50 ng)

CCNC(=O)[C@@H]1CCCN1C(=O)[C@H](CCCNC(=N)N)NC(=O)[C@H](CC(C)C)NC(=O)[C@@H](CC(C)C)NC(=O)[C@H](Cc1ccc(O)cc1)NC(=O)[C@@H](CO)NC(=O)[C@H](Cc1c[nH]c2ccccc12)NC(=O)[C@H](Cc1c[nH]cn1)NC(=O)[C@@H]1CCC(=O)N1 [L-Pyroglutamyl-L-histidyl-L-tryptophyl-D-seryl-L-tyrosyl-D-leucyl-L-leucyl- L-arginyl-L-prolyl ethylamide] ([pGlu]HW[dS]Y[dL]LRP-NHEt)
time at which peak activity (LH release) is reached after dosing (LH-release; 50 ng subcutaneously): about 2 hours
time for which significant activity (LH release) is still present (LH-release; 50 ng subcutaneously): up to 6 hours
activity in releasing LH relative to LH-RH, from integrated levels of LH over a six hour period (LH-release; equal doses 50 ng subcutaneously, six hour period): about 21 times
activity in FSH release relative to LH-RH (FSH-release): about 11 times

Reference: US4024121A, “(Pyro)-Glu-His-Trp-D-Ser-Tyr-D-Leu-Leu-Arg-Pro-NHR and intermediates” (priority 1976, dated 1977)
